Experimental data from PMC12000511, “Molecular basis for the assembly of the Vps5-Vps17 SNX-BAR proteins with Retromer” (Nature Communications, 2025).
No constants are given. Whether binding was seen depends on the method and setting. Binding calls can cover weak binding; strength is not graded here.

Target: mouse VPS29 (mVPS29), long isoform (mouse)
Assay: crystal structure; co-crystallisation of mVps29 with sixfold molar excess of ctVps5(71–80) peptide; hanging drop, 20 °C; 1.7 Å; both purified

DDPLGPLGA [ctVps5_(71–80) peptide]
binding: binds
